Patent US20150104448A1 (TRUE NORTH THERAPEUTICS, published 2015)
Results are given in words; binding and its absence hold for the method and conditions named. Some entries that bind do so weakly or less than the wild type.

Amino acid sequences for entries named in this document (tags omitted). A change or cut given only in a name is not applied to a line headed by its entry.
UniProt P00736: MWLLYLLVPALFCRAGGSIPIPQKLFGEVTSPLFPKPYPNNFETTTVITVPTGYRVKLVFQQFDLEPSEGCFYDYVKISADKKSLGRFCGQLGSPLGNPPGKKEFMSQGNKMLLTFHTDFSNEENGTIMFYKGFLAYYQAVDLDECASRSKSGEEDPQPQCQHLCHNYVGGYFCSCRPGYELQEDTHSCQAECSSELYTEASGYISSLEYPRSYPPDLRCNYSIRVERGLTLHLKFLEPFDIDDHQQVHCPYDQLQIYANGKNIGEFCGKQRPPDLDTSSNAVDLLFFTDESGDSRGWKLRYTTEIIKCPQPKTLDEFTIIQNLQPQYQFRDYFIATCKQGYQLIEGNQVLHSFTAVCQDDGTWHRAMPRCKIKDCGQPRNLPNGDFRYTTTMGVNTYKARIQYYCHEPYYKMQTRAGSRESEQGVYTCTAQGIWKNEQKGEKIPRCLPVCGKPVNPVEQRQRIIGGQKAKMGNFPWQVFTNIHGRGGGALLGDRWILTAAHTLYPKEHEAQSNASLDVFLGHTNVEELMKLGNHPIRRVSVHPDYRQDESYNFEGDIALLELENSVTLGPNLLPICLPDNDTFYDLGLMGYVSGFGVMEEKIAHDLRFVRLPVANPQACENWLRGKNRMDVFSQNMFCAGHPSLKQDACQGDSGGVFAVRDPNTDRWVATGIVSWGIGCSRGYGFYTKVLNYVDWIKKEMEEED
UniProt P02745: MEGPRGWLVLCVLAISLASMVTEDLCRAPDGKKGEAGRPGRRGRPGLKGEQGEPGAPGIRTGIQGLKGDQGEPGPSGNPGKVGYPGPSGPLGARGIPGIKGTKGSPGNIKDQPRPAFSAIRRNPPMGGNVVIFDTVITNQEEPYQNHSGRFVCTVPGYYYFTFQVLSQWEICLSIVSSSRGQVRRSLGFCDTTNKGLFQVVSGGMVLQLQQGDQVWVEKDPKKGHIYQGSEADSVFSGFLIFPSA
UniProt P02746: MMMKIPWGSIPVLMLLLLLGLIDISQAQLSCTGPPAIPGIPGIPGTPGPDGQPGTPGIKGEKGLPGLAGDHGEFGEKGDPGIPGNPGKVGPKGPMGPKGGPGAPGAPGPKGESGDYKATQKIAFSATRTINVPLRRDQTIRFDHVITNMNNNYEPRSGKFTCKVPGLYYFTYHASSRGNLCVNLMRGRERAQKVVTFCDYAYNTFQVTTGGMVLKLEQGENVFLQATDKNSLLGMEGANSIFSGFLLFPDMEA
UniProt P02747: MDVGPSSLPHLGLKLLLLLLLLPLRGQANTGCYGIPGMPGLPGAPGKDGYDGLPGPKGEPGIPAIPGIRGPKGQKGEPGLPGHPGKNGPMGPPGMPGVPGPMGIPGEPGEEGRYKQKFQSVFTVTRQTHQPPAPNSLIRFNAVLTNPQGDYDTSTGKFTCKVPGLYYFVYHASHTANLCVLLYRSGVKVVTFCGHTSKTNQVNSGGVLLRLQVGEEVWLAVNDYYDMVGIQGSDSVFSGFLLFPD

Experiments:
[1] = biological target: T1, purified human C1 complex (human) (UniProt P00736+P02745+P02746+P02747); assay: biotin-labeled TNT003 incubated with purified human C1 complex, Superdex-200 fractions analyzed by western blotting
[2] = biological target: T2, purified human activated C1s protein, two-chain form (Homo sapiens) (UniProt P09871); assay: ELISA, target proteins immobilized on micro-titer plates
T2 sequence: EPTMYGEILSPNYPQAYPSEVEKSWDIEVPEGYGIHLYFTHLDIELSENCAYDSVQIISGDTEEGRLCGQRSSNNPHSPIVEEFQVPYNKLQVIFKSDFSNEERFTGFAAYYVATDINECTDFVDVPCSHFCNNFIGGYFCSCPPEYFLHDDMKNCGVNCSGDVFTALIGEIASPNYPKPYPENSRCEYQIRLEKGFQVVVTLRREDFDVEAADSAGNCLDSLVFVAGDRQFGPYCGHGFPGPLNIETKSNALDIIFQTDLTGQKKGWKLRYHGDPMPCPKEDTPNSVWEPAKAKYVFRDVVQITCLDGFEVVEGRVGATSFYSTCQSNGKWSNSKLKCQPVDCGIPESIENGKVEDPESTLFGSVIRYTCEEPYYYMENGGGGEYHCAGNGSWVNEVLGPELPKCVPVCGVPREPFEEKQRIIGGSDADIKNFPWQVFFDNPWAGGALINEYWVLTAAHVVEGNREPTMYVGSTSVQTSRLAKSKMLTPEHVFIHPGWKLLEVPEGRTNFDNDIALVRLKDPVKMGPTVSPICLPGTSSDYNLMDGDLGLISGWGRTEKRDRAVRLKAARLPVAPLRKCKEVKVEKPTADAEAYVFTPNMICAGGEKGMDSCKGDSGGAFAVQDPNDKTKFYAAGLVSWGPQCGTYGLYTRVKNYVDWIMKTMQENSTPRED

[3] = biological target: T3, full-length human C1s, recombinant (expressed in HEK293 cells) (human) (UniProt P09871); assay: western blot of non-reduced SDS-PAGE gels
T3 sequence: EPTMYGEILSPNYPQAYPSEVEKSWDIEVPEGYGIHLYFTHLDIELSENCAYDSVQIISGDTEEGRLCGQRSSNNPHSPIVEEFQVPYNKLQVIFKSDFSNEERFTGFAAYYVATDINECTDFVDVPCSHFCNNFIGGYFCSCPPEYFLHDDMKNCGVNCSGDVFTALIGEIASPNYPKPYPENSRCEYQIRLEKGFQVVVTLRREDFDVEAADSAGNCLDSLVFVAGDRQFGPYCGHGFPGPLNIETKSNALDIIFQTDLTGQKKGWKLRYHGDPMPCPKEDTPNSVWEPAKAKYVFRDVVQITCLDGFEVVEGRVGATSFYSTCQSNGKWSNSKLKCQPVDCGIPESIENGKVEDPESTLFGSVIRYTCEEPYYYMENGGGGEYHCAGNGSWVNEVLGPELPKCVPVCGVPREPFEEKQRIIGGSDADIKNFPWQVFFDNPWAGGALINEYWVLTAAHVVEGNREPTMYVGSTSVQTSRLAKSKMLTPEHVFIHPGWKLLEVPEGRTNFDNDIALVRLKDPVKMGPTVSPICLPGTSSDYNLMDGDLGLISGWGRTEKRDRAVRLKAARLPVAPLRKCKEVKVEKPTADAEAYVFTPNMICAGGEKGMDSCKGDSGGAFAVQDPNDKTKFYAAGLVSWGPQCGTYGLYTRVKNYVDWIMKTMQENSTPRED

[4] = biological target: T4, hC1s fragment 1.b (amino acids 272-422 of human C1s) (human) (UniProt P09871); assay: western blot of non-reduced SDS-PAGE gels
T4 sequence: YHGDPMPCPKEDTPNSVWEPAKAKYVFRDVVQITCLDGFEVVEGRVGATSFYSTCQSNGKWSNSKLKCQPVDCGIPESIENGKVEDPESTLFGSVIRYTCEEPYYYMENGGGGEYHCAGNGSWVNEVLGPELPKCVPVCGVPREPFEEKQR

[5] = biological target: T2, purified human activated C1s protein, two-chain form (Homo sapiens); assay: ELISA with target proteins immobilized on micro-titer plates; ELISA, native protein immobilized on micro-titer plates
[6] = biological target: T2, purified human activated C1s protein, two-chain form (Homo sapiens); assay: solution phase monoclonal antibody capture assay with biotin-labeled activated C1s; native biotin-labeled activated C1s in solution, hybridoma supernatant screen
[7] = biological target: T2, purified human activated C1s protein, two-chain form (Homo sapiens); assay: western blot of non-reduced activated human C1s
[8] = biological target: T2, purified human activated C1s protein, two-chain form (Homo sapiens); assay: western blot of activated human C1s run on SDS-PAGE under non-reducing conditions
[9] = biological target: T1, purified human C1 complex (human); assay: biotin-labeled TNT003 incubated with purified C1 complex, size exclusion on Superdex-200

Measured: binding

B1: Anti-C1s monoclonal antibody IPN003 (antibody, V domains shown)
VH: EVMLVESGGALVKPGGSLKLSCAASGFTFSNYAMSWVRQIPEKRLEWVATISSGGSHTYYLDSVKGRFTISRDNARDTLYLQMSSLRSEDTALYYCARLFTGYAMDYWGQGTSVTVSS
VL: QIVLTQSPAIMSASLGERVTMTCTASSSVSSSYLHWYQQKPGSSPKLWIYSTSNLASGVPARFSGSGSGTFYSLTISSMEAEDDATYYCHQYYRLPPITFGAGTKLELK
notes: Mouse monoclonal antibody from an NZBW hybridoma; Biotin-labeled in some assays; also called IPN-M34; M34
binds: [1] | [2] | [3] | [4] | [5] | [6] | [7] | [8] | [9]
